Measurements reported in PubChem BioAssay AID1259405 (NCATS, 2018)

Screen: 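Silenced genes that increase secreted GFP made by CHO cells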 (primary screen)
Cell system: Chinese hamster CHO-K1 ovary cells with stable secreted eGFP expression
Reagent: single siRNA against mouse genes, 0.8 pmol siRNA per well (2 µl of 400 nM stock)
Timing: 3 days
Read-out: 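Percent of the per-plate non-targeting control median for intracellular GFP per well by laser scanning cytometry and for cell viability by ATP luminescence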
Scale: GFP, % of control: higher = more GFP per well, higher productivity
Call rule: 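Called active when intracellular GFP, relative to negative control, is at or above 120%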
The deposit covers about 50,000 reagents; below is a part drawn at random. Of all reagents, about 4,000 (8%) got an active call. 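Mouse siRNA library applied to hamster cells; one well for each siRNA.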 The numbers tell different reagents against one gene apart. Further read-outs or replicates are left out here. No sequences are given here.

GFP, % of control, by target and reagent
Myom1 (myomesin 1): #1 64.7 inactive; #2 50.4 inactive; #3 32.3 inactive
Eci3 (enoyl-Coenzyme A delta isomerase 3): #1 59.3 inactive; #2 78.5 inactive; #3 87.6 inactive
Anln (anillin, actin binding protein): #1 86 inactive; #2 131 active; #3 86.5 inactive
Dctn1 (dynactin 1): #1 99.2 inactive; #2 90.7 inactive
Slc27a5: #1 101 inactive; #2 86.1 inactive; #3 111 inactive
Sh2d3c (SH2 domain containing 3C): #1 89.7 inactive; #2 68.1 inactive; #3 56.6 inactive
Adap2 (ArfGAP with dual PH domains 2): #1 101 inactive; #2 70.3 inactive; #3 35.6 inactive
Rfwd3 (ring finger and WD repeat domain 3): #1 66.7 inactive; #2 68 inactive; #3 93.1 inactive
Mical3: #1 99.1 inactive; #2 112 inactive; #3 73.6 inactive
Ca5a (carbonic anhydrase 5A): #1 108 inactive; #2 65.3 inactive
Pccb (propionyl Coenzyme A carboxylase, beta polypeptide): #1 85.4 inactive; #2 90.2 inactive; #3 126 active
Ticam1 (TIR domain containing adaptor molecule 1): #1 121 active; #2 100 inactive; #3 82.1 inactive

5 consecutive records already listed:
GFP, % of control, by target and reagent
Slc27a5: #3 111 inactive
Sh2d3c (SH2 domain containing 3C): #1 89.7 inactive; #2 68.1 inactive; #3 56.6 inactive
Adap2 (ArfGAP with dual PH domains 2): #1 101 inactive
